These results are taken from article PMC8316464.

Results are given in words; binding and its absence hold for the method and conditions named. For some assays here: Tags and fused reporters may be left off the sequences shown.

The target in one test is T1, Bcl-w (human) (UniProt Q92843).
T1 sequence: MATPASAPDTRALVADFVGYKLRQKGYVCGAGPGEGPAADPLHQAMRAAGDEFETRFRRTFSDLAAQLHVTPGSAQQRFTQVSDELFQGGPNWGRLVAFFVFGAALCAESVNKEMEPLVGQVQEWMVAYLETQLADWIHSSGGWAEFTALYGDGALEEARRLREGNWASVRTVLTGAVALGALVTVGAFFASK
In words: SPR; Biacore S200; Bcl-2 family proteins immobilised on CM5 (amine coupling or His-Capture Kit); peptides and flag-tagged proteins as analytes, single-cycle kinetics, HBS-EP, 25 °C; 1:1 Langmuir model; absence of binding probed at 100 nM and 3 µM; both purified.

Another test concerns the target T2, Bfl-1 (human) (UniProt Q16548).
T2 sequence: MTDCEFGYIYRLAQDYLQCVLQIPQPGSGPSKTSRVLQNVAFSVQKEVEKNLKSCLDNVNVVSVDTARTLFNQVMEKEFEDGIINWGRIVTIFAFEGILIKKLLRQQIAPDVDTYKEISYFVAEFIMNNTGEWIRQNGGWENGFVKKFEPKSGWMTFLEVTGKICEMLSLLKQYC
Described as above.

In test [1] the target is flag-tagged ApoL1-NTD (D61–T172) (human) (UniProt O14791). In words: SEC-MALS; XBridge BEH 200 Å column in PBS, 0.02% sodium azide, 1 ml/min; complex formed with a twofold molar excess of ApoL1-NTD (46.8 µM) over Fab7D6, 30 min at room temperature; components also run alone; both purified. For orientation: Size exclusion chromatography separates by hydrodynamic size, large species first.

Test [2] concerns the target ApoL1-NTD cleaved between L88 and T89 during crystallization (protomer in the Fab7D6:ApoL1-NTD crystal) (human) (UniProt O14791). Briefly: crystal structure; Fab complexes formed with 1.5 molar excess of NTD and purified on Superdex-200 in 0.15 M NaCl, 25 mM Tris pH 8.0, about 10 mg/ml; Fab7D6 also crystallised with the synthetic peptide E152–H169; both purified.

B1: flag-tagged ApoL2-NTD (N2-T113) (domain or fragment, UniProt Q9BQE5 2-113)
chain: NPESSIFIEDYLKYFQDQVSRENLLQLLTDDEAWNGFVAAAELPRDEADELRKALNKLASHMVMKDKNRHDKDQQHRQWFLKEFPRLKRELEDHIRKLRALAEEVEQVHRGT
For B1, the binding entry with Bcl-w (human) and with Bfl-1 (human) was “no binding (tested: up to 3 µM)” throughout.
With RLKRELEDHIRKLRALAEEVEQVHR [ApoL2-BH3 peptide (25-mer, residues 87-111)], the binding entry with Bcl-w (human) and in the test with Bfl-1 (human) was “no binding (tested: up to 3 µM)” throughout.
On to RLKSELEDNIRRLRALADGVQKVHK [ApoL1-BH3 peptide (25-mer, residues 146-170)], for which the binding entry in the test with Bcl-w (human) and with Bfl-1 (human) was “no binding (tested: up to 3 µM)” throughout.

B2: flag-tagged ApoL1-NTD (D61–T172) (domain or fragment, UniProt O14791 61-172)
chain: DPESSIFIEDAIKYFKEKVSTQNLLLLLTDNEAWNGFVAAAELPRNEADELRKALDNLARQMIMKDKNWHDKGQQYRNWFLKEFPRLKSELEDNIRRLRALADGVQKVHKGT
B2: the binding result in the test with Bcl-w (human) is reported as “no binding (tested: up to 3 µM)”; in the test with Bfl-1 (human), “no binding (tested: up to 3 µM)”; in test [1], “no binding”.

B3: full-length ApoL1 with N-terminal flag-tag (protein, UniProt O14791-1 28-398)
chain: EEAGARVQQNVPSGTDTGDPQSKPLGDWAAGTMDPESSIFIEDAIKYFKEKVSTQNLLLLLTDNEAWNGFVAAAELPRNEADELRKALDNLARQMIMKDKNWHDKGQQYRNWFLKEFPRLKSELEDNIRRLRALADGVQKVHKGTTIANVVSGSLSISSGILTLVGMGLAPFTEGGSLVLLEPGMELGITAALTGITSSTMDYGKKWWTQAQAHDLVIKSLDKLKEVREFLGENISNFLSLAGNTYQLTRGIGKDIRALRRARANLQSVPHASASRPRVTEPISAESGEQVERVNEPSILEMSRGVKLTDVAPVSFFLVLDVVYLVYESKHLHEGAKSETAEELKKVAQELEEKLNILNNNYKILQADQEL
B3: the binding entry in the test with Bcl-w (human) and with Bfl-1 (human) was “no binding (tested: up to 3 µM)” throughout.

B4: ApoL1-NTD cleaved between L88 and T89 during crystallization (protomer in the Fab7D6:ApoL1-NTD crystal) (domain or fragment, UniProt O14791 89-172)
chain: TDNEAWNGFVAAAELPRNEADELRKALDNLARQMIMKDKNWHDKGQQYRNWFLKEFPRLKSELEDNIRRLRALADGVQKVHKGT
With B4, the binding result in test [2] is “no binding”.
Consider RLKSELEDNARRLRALADGVQKVHK [ApoL1-BH3 (I155A) peptide], for which the binding entry in the test with Bcl-w (human) and with Bfl-1 (human) was “no binding (tested: up to 3 µM)” throughout.
